## Library screen at single concentrations

The chains behind the UniProt entries cited, without tags or fusion partners. Residues count along the entry.
UniProt P9WPC5, whole entry: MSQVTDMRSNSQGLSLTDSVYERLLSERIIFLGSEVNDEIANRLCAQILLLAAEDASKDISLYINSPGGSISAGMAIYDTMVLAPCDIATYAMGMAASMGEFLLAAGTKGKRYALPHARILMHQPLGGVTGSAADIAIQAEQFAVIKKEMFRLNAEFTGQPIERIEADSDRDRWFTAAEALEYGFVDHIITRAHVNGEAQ
UniProt P9WPC3, whole entry partner: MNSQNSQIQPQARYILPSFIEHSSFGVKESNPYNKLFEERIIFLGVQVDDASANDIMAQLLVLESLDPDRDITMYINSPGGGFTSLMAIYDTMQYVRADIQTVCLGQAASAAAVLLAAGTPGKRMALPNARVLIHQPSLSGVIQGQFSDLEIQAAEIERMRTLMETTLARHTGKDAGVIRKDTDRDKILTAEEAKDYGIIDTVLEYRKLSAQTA
UniProt P9WNZ1, whole entry: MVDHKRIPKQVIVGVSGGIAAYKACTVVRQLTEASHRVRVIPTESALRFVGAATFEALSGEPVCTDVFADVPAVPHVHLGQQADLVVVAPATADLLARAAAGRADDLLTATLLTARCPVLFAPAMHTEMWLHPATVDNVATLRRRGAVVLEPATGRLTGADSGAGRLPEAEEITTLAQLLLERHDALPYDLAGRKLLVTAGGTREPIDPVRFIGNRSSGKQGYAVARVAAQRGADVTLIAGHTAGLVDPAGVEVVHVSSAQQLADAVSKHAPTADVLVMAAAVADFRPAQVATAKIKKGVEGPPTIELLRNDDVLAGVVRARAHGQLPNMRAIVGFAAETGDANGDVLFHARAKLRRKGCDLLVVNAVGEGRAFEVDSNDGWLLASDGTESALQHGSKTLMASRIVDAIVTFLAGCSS
UniProt Q8IDJ8, 1-583: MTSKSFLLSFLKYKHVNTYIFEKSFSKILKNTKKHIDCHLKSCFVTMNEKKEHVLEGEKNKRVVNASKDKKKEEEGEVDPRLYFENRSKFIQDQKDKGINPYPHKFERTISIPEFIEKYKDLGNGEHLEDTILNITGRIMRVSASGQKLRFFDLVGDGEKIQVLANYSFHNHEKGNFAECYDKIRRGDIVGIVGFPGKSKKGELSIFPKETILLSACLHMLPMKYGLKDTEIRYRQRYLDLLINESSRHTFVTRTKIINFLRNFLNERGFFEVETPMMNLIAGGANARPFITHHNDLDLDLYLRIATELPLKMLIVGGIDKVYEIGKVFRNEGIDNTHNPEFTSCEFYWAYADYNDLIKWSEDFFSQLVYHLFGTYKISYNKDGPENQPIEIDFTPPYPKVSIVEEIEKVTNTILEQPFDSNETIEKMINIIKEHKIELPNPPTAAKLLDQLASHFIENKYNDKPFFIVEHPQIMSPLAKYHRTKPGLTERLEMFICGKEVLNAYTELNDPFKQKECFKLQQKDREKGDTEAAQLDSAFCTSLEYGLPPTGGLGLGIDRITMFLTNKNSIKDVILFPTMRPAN

ClpP1P2: 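Protease assay of ClpP1P2, read by the AMC dye that it sets free. Target: ClpP1P2, Mycobacterium tuberculosis (UniProt P9WPC5 and UniProt P9WPC3). Concentration: 50 µM. Direction is inferred from only a few compounds that gave an IC50; most scored high, so higher reads as stronger inhibition. Most other retested compounds had strongly negative values. About 69,000 compounds were tested under these conditions; 0.015% (about 10) showed 50% or more at least once.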
CoaBC: 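Coenzyme A biosynthesis protein CoaBC, Mycobacterium tuberculosis (UniProt P9WNZ1). Enzyme assay of CoaBC with a phosphate dye (Biomol Green) read at 650 nm. Compounds at 30 µM. Higher reads as stronger inhibition, judged from the few compounds that gave an IC50. Most strong results did not repeat in a second test. Of about 67,000 compounds tested this way, about 40 (0.06%) reached 50% or more in at least one test.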
PfKRS1: 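Enzyme assay of the cytosolic lysyl-tRNA synthetase in 384-well plates, read by luminescence. Target: Lysine-tRNA ligase, Plasmodium falciparum 3D7 (UniProt Q8IDJ8). Compounds at 30 µM. Direction is inferred from only a few compounds that gave an IC50; most scored high, so higher reads as stronger inhibition. Size under these conditions: about 69,000 compounds, about 49 of them at 50% or above in at least one test.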

The filed quantity is “Percent Effect” (%).
How 0% and 100% were set is not recorded. Most values in the screen are low, and negative values occur.
This is an unselected part of the compounds tested.

For Cc1nc(-c2ccccc2C(=O)O)cc(C2CCN(C(C)C)C2)n1 (stereo not shown) the result was ClpP1P2: 11.58%; CoaBC: -0.1205%; PfKRS1: -0.1788%.
For CCn1cc(CNCc2ccc(C(=O)OC)cc2)c(C)n1 the result was ClpP1P2: -2.479%; CoaBC: -1.104%; PfKRS1: 4.474%.
For CN(Cc1nc2ccccc2n1C)C(=O)CCc1cscn1 the result was ClpP1P2: -0.9586%; CoaBC: -1.789%; PfKRS1: 5.101%.
For CC(C)c1noc(CN2CCC3(CCCO3)CCC2=O)n1 (stereo not shown) the result was ClpP1P2: -18.65%; CoaBC: 0.4464%; PfKRS1: 1.068%.
For Cc1cnn(C2CN(CC(=O)N(C)Cc3ccc(C)o3)C2)c1 the result was ClpP1P2: 3.189%; CoaBC: -3.171%; PfKRS1: -9.846%.
For O=C(C1CCC1)N1CCC2(CC1)OCCO2 the result was ClpP1P2: 4.619%; CoaBC: 4.723%; PfKRS1: -3.842%.
For Cc1oc(CNC(=O)Cc2cccc(OC(F)F)c2)cc1C(=O)O the result was ClpP1P2: 2.854%; CoaBC: 2.233%; PfKRS1: -3.046%.
For Cn1cccc1CNC(=O)CCCc1nnc2ccccn12 the result was ClpP1P2: -2.671%; CoaBC: -11.71%; PfKRS1: -2.367%.
For CCn1cnnc1CNC(=O)N1CCC(OCc2ccccc2)CC1 the result was ClpP1P2: -33.01%; CoaBC: 7.833%; PfKRS1: -0.149%.
For CCn1ncc2c1C(COCC1CC1)CN(C(=O)c1ccncn1)C2 (stereo not shown) the result was ClpP1P2: 16.69%; CoaBC: -0.6085%; PfKRS1: 6.462%.
For O=C(c1ncccc1O)N1CCN(Cc2ccco2)C(CCO)C1 (stereo not shown) the result was ClpP1P2: -1.22%; CoaBC: 0.3745%; PfKRS1: -0.4154%.
For O=C(CCc1nccs1)N1CCN(c2ccccc2F)CC1 the result was ClpP1P2: -6.234%; CoaBC: -10.8%; PfKRS1: -7.217%.
For CC(C)c1cc(C(=O)NCCn2nnc3ccccc32)no1 the result was ClpP1P2: 15.68%; CoaBC: -1.72%; PfKRS1: -1.324%.
For CCn1nc(C)c2nc(C)nc(NCCc3ccccc3)c21 the result was ClpP1P2: 3.324%; CoaBC: 3.928%; PfKRS1: 7.372%.
For COc1cccc(C(=O)NCC(c2cccn2C)N2CCCC2)c1OC (stereo not shown) the result was ClpP1P2: 5.822%; CoaBC: 0.3953%; PfKRS1: 0.4553%.
For Fc1ccc(NCc2nnsc2Cl)c(OC(F)F)c1 the result was ClpP1P2: -2.254%; CoaBC: -3.891%; PfKRS1: 6.119%.
For c1cnnc(N2CCCC2CNCc2cc[nH]n2)c1 (stereo not shown) the result was ClpP1P2: -5.748%; CoaBC: -1.596%; PfKRS1: 1.225%.
For O=c1nc(SCc2ccncc2)c2c(n1CCO)CCC2 the result was ClpP1P2: 5.938%; CoaBC: 2.372%; PfKRS1: 4.154%.
For O=C(c1cc(C2CCCCN2CCO)n[nH]1)N1CCOCC1 (stereo not shown) the result was ClpP1P2: 1.405%; CoaBC: 4.902%; PfKRS1: 2.854%.

Data taken from ChEMBL document CHEMBL3988442, “University of Dundee, Small-Polar-MMV Screening Library” (2021).